In PubChem BioAssay AID248 (DTP/NCI, 2004):
The list is a part of this screen's results and no random one: it is rich in T/C values a quarter to a half above the control, in often repeated tests (any T/C) and in doses without a T/C. Further doses and runs are listed elsewhere. T/C gives the treated animals as a percentage of the vehicle group. Some entries give survivors of the animals treated and no T/C: the source files T/C as zero there, which appears to mark a toxic dose or a test without result, not a measured value. Some doses without a T/C left all or most animals alive at the check, yet need not have been tolerated: the source hardly ever lists a survival T/C far under the control, and the zero likely stands for such cases as well. Survivors were counted at the toxicity check, usually on the fifth day, unless a day is given; later deaths do not show. Schedules are NCI's codes, read here as Q, the interval in days (D) or hours (H), X, the number of doses. Some entries were tested several times; the results are listed from low to high. Some schedule codes hold Z or #, which are not explained here. Some molecules as drawn cover several salts, stereoisomers or complexes of the source; a dose is that of the sample tested.

Test system: L1210 leukemia ip in BDF1 mice, survival T/C
Experiment: NCI In Vivo Anticancer Drug Screen. Data for tumor model L1210 Leukemia (intraperitoneal) in B6D2F1 (BDF1) mice
Settings: T/C endpoint: mean survival time, higher T/C = longer survival
[1] = dose: 100.0 mg/kg/injection, schedule: Q04DX002 (ip), vehicle: Klucel (hydroxypropylcellulose) (HPC)
[2] = dose: 200.0 mg/kg/injection, schedule: Q04DX002 (ip), vehicle: Klucel (hydroxypropylcellulose) (HPC)
[3] = dose: 400.0 mg/kg/injection, schedule: Q04DX002 (ip), vehicle: Klucel (hydroxypropylcellulose) (HPC)
[4] = dose: 200.0 mg/kg/injection, schedule: Q01DX001 (ip), vehicle: saline
[5] = dose: 400.0 mg/kg/injection, schedule: Q01DX001 (ip), vehicle: saline

CC(=O)OC(C)(C)/C=C/C(=O)[C@](C)(O)[C@H]1[C@H](O)C[C@@]2(C)[C@@H]3CC=C4[C@@H](C[C@H](O)C(=O)C4(C)C)[C@]3(C)C(=O)C[C@]12C
survivor count (dose: 0.57 mg/kg/injection, schedule: Q01DX Z (ip), vehicle: saline): 1 of 6 | survivor count (dose: 0.72 mg/kg/injection, schedule: Q01DX009 (ip), vehicle: saline): 0 of 6 | survivor count (dose: 0.8 mg/kg/injection, schedule: Q01DX Z (ip), vehicle: carboxymethylcellulose (CMC)): 1 of 4 | survivor count (dose: 0.8 mg/kg/injection, schedule: Q01DX Z (ip), vehicle: saline): 0 of 6 | survivor count (dose: 1.0 mg/kg/injection, schedule: Q01DX001 (ip), vehicle: saline): 0 of 6 | survivor count (dose: 1.13 mg/kg/injection, schedule: Q01DX009 (ip), vehicle: saline): 0 of 6 | survivor count (dose: 1.2 mg/kg/injection, schedule: Q01DX Z (ip), vehicle: saline): 0 of 6 | survivor count (dose: 1.6 mg/kg/injection, schedule: Q01DX Z (ip), vehicle: carboxymethylcellulose (CMC)): 0 of 4 | survivor count (dose: 1.65 mg/kg/injection, schedule: Q01DX009 (ip), vehicle: saline): 0 of 6 | survivor count (dose: 1.8 mg/kg/injection, schedule: Q01DX Z (ip), vehicle: saline): 0 of 6 | survivor count (dose: 3.2 mg/kg/injection, schedule: Q01DX Z (ip), vehicle: carboxymethylcellulose (CMC)): 0 of 4

Cc1ccc(O)c(C(c2cc(S(=O)(=O)O)c(O)cc2C)N2CN(C(c3cc(S(=O)(=O)O)c(O)cc3C)c3cc(C)ccc3O)C2=O)c1 (stereo not drawn)
survivor count (dose: 400.0 mg/kg/injection, schedule: Q04DX002 (ip), vehicle: saline with Tween-80): 0 of 3

C(#[C][Sn]([c]1ccccc1)([c]1ccccc1)[c]1ccccc1)c1ccccc1
survivor count [1]: 0 of 3 and 1 of 3 | survivor count [2]: 0 of 3 | survivor count [3]: 0 of 3

C[As](C)N
survivor count (dose: 40.0 mg/kg/injection, schedule: Q01DX001 (ip), vehicle: saline): 1 of 6 | survivor count (dose: 75.0 mg/kg/injection, schedule: Q01DX001 (ip), vehicle: saline): 0 of 6 | survivor count (dose: 100.0 mg/kg/injection, schedule: Q01DX001 (ip), vehicle: saline): 0 of 6 | survivor count (dose: 150.0 mg/kg/injection, schedule: Q01DX001 (ip), vehicle: saline): 0 of 6 | survivor count [4]: 0 of 6 | survivor count (dose: 300.0 mg/kg/injection, schedule: Q01DX001 (ip), vehicle: saline): 0 of 6 | survivor count [5]: 0 of 6

CCCS/C(N)=N/N=C/c1ccc([N+](=O)[O-])o1
survivor count (dose: 200.0 mg/kg/injection, schedule: Q01DX001 (ip), vehicle: other): 2 of 4 | survivor count (dose: 400.0 mg/kg/injection, schedule: Q01DX001 (ip), vehicle: other): 0 of 4

Cc1ncc(C(=O)Nc2ccccc2)[nH]1
survivor count (dose: 400.0 mg/kg/injection, schedule: Q01DX009 (ip), vehicle: Klucel (hydroxypropylcellulose) (HPC)): 0 of 6 | survivor count (dose: 400.0 mg/kg/injection, schedule: Q04DX003 (ip), vehicle: Klucel (hydroxypropylcellulose) (HPC)): 0 of 6

N=C(N)SCCCCCSC(=N)N
survivor count [5]: 0 of 4 | survivor count (dose: 400.0 mg/kg/injection, schedule: Q04DX002 (ip), vehicle: saline): 0 of 3

COc1cc(C(=O)O/N=C(\N)CCl)cc(OC)c1OC
survivor count [1]: 1 of 3 | survivor count [2]: 1 of 3 | survivor count [3]: 0 of 3

O=[N+]([O-])c1ccc(O)c(N=Cc2ccc(C=Nc3cc([N+](=O)[O-])ccc3O)cc2)c1
survivor count (dose: 200.0 mg/kg/injection, schedule: Q01DX009 (ip), vehicle: Klucel (hydroxypropylcellulose) (HPC)): 3 of 6

C[CH2][Hg][Cl]
survivor count (dose: 50.0 mg/kg/injection, schedule: Q04DX002 (ip), vehicle: Klucel (hydroxypropylcellulose) (HPC)): 1 of 3 | survivor count [1]: 1 of 3 | survivor count [4]: 2 of 4 | survivor count [2]: 2 of 3 | survivor count [5]: 0 of 4 | survivor count [3]: 1 of 3
